No constants are given. Whether binding was seen depends on the method and setting. Binding seen in cells or lysates may run through a third protein. Some entries that bind do so weakly or less than the wild type.
How the values were obtained:
Myc-tagged IFITM3 = Myc-tagged IFITM3 (UniProt Q01628); experiment: co-IP; IFITM3 and STAT1 in HEK293T cells (Supplementary Fig. 4b, c); bait and antibodies not told in the text shown
IFITM3 in Hela cells = IFITM3 in Hela cells (UniProt Q01628); experiment: co-IP; IFITM3 and STAT1 in Hela cells (Supplementary Fig. 4b, c); bait and antibodies not told in the text shown

Protein sequences, listed by entry. Tags and fused reporters are not part of them.
UniProt Q01628: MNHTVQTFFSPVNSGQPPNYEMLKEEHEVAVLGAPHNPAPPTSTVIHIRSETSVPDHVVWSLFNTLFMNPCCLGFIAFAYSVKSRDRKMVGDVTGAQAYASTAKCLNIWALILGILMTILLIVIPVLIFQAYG
UniProt P42224: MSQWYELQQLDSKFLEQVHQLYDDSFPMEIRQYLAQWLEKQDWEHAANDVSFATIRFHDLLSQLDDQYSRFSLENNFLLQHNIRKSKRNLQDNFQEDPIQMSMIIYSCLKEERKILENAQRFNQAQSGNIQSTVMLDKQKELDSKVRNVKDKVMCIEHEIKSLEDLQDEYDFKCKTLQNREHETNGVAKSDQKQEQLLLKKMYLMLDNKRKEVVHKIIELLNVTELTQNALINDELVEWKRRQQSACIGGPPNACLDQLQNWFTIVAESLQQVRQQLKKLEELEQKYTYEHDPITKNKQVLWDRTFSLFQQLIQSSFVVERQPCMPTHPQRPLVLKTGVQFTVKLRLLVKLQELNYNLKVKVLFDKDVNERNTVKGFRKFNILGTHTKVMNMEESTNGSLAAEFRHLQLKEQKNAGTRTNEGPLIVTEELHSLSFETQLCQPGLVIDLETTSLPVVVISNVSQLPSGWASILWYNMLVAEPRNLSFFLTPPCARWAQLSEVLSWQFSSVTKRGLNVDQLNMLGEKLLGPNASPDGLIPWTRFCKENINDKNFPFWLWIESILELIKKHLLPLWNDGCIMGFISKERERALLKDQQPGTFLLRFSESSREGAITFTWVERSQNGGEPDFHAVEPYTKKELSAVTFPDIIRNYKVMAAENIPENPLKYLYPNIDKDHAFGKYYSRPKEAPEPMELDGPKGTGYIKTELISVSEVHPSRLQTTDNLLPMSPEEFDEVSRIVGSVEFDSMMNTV

binding (Myc-tagged IFITM3) | binding (IFITM3 in Hela cells) | Substance
binds |  | HA-tagged STAT1 (from UniProt P42224 1-750)
 | binds | STAT1 in Hela cells (from UniProt P42224 1-750)
